Experimental data: patent US4324744A, “Acylphosphine oxide compounds” (BASF Aktiengesellschaft, priority 1978, dated 1982)
Like-named read-outs stand apart in the source and are kept apart here.

Key:
[1] = Yellowing of photopolymerized finishes on white photographic paper (yellowness index, ASTM D 1925)
[2] = Temperature variation during photopolymerization of unsaturated polyester resin A; settings: 0.35% photoinitiator
[3] = Temperature variation during photopolymerization of unsaturated polyester resin B; settings: 0.35% photoinitiator
[4] = Hardening activity of the photoinitiators: maximum conveyor belt speed giving a nail-hard, scratch-resistant surface (80 μm film, Hg high-pressure lamp); settings: for Maximum conveyor belt speed, in air / Maximum conveyor belt speed, in inert gas: 3 parts initiator
[5] = Light-hardening of unsaturated polyester resin under fluorescent lamps, Konig pendulum hardness; settings: after an exposure time of 4 minutes
[6] = concentration employed 3%, inert gas, 72 m/min

| SMILES | Maximum temperature reached by sample, Tmax [2] [°C] | Maximum conveyor belt speed, in air; 3% of N-phenylglycine added to the mixture [4] [m/min] | Maximum conveyor belt speed, in air [4] [m/min] | Maximum conveyor belt speed, in inert gas [4] [m/min] | further results |
| --- | --- | --- | --- | --- | --- |
| COP(=O)(C(=O)C(C)(C)C)c1ccccc1 (stereo not shown) [Methyl pivaloylphenylphosphinate] | 106 | 10 | 10 | 150 | Yellowing measured in terms of the yellowness index [1]: -2.34; Hardening time (time between 25° C. and Tmax) [3]: 13 min; Maximum temperature reached by sample, Tmax [3]: 112 °C |
| CC(C)(C)C(=O)P(=O)(c1ccccc1)c1ccccc1 [Pivaloyl-diphenylphosphine oxide, pivaloyldiphenylphosphine oxide] |  | 25 | 11 | 150 | Film workability after hardening [5]: can be rubbed down and buffed; Konig pendulum hardness ([5]; 1.5 parts initiator to 97 parts resin): 76 s; Yellowing measured in terms of the yellowness index [1, 6]: -3.33 |
| Cc1ccccc1C(=O)P(=O)(c1ccccc1)c1ccccc1 [2-Methylbenzoyl-diphenylphosphine oxide, 2-methylbenzoyldiphenylphosphine oxide] |  |  |  | 70 |  |
| O=C(c1ccc(C(=O)P(=O)(c2ccccc2)c2ccccc2)cc1)P(=O)(c1ccccc1)c1ccccc1 [terephthaloyl-bis-diphenylphosphine oxide] | 109 |  |  |  |  |
| COP(=O)(C(=O)c1ccc(C)cc1)c1ccccc1 (stereo not shown) [Methyl toluyl-phenylphosphinate, methyl 4-methylbenzoyl-phenylphosphinate] |  | 25 | 10 | 70 |  |
| CC(C)(C)c1ccc(C(=O)P(=O)(c2ccccc2)c2ccccc2)cc1 [4-tert.-Butyl-benzoyldiphenylphosphine oxide] | 120 |  |  |  |  |
| COC(OC)(C(=O)c1ccccc1)c1ccccc1 [Benzil dimethylketal, reference compound] |  |  |  |  | Yellowing measured in terms of the yellowness index [1, 6]: 9.20 |
| CCCCC(CC)C(=O)P(=O)(OC)c1ccccc1 (stereo not shown) [Methyl 2-ethylhexanoyl-phenylphosphinate, Methyl 2-ethyl-hexanoyl-phenylphosphinate] |  |  |  | 40 |  |
| CCOP(=O)(OCC)C(=O)C(C)(C)C [Diethyl pivaloylphosphonate, reference compound] |  |  |  | 10 |  |
